The assay addresses T1, Flag-RIG-I (mouse (cloned from N2a cells)) (UniProt Q6Q899).
T1 sequence: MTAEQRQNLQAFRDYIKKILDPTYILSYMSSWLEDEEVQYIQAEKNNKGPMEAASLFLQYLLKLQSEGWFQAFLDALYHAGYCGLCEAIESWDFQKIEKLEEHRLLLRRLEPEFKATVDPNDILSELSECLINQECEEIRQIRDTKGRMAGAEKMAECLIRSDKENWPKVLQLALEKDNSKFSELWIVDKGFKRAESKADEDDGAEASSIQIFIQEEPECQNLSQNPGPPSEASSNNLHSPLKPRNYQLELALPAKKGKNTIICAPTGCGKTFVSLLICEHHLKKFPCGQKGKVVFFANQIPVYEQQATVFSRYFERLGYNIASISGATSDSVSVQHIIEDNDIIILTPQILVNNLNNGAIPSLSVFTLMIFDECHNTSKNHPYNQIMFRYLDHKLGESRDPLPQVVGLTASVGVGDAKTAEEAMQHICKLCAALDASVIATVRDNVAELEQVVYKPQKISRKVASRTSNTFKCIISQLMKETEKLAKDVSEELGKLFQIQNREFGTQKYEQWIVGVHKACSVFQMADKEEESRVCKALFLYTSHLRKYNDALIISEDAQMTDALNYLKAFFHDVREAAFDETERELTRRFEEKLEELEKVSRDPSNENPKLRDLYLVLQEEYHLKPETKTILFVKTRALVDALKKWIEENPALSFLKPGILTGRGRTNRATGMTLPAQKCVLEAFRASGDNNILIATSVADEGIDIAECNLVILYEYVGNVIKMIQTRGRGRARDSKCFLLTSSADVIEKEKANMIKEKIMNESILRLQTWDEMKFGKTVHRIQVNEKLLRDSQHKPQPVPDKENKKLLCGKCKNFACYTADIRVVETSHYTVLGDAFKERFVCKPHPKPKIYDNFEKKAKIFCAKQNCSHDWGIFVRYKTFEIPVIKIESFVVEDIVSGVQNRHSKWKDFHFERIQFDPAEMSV
The experiment in a line: co-IP.

Protein sequences, listed by entry. Tags and fused reporters are not part of them.
UniProt Q61510: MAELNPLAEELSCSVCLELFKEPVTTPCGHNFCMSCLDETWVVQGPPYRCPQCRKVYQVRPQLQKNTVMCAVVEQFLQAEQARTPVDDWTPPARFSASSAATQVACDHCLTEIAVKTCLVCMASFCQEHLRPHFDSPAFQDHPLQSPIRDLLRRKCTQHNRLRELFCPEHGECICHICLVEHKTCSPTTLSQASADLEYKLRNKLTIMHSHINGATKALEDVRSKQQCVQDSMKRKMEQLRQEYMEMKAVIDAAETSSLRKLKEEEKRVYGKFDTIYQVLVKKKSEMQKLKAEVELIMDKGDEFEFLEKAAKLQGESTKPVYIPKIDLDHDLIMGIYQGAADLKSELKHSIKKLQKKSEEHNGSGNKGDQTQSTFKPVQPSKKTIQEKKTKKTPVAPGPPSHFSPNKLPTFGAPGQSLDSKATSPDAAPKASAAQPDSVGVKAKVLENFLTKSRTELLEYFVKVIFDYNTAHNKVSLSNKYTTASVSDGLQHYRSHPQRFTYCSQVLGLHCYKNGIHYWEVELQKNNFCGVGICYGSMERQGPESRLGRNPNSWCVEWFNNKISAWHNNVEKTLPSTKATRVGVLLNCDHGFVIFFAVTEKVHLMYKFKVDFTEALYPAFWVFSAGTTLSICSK

No constants are given. Whether binding was seen depends on the method and setting. Binding seen in cells or lysates may run through a third protein. Some entries that bind do so weakly or less than the wild type. Sequences can lack the tags named with a protein.

For the substance “HA-TRIM25 (from UniProt Q61510 1-634) (enzyme)”, the binding entry was “binds”.

Source of the values: article PMC10454932.
